This is one part of the list. The list holds hits alone, and they repeat only in part.
How the values were obtained:
Assay in all cases: PRISMA enrichment of interactor (LFQ) in peptide spot vs all other peptide spots (log2 fold change); higher = stronger / more specific binding of the interactor to the peptide
ABCE1, P61221 = target: ABCE1, P61221
Experimental: (§1)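 PRISMA: 15-aa overlapping tiles (offset 8 aa) of 60 microproteins, plus SOS1/GLUT1 control peptides, were spot-synthesized on cellulose membranes in triplicate. Membranes were incubated with benzonase-treated HEK293T lysate, and bound proteins were identified by LC-MS/MS with LFQ. Enrichment is the log2 fold change of each protein in one spot versus all other spots. Only interactors passing the significance cutoff are listed.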

The chains behind the UniProt entries cited, without tags or fusion partners.
CUL4B, Q13620, UniProt Q13620, whole entry: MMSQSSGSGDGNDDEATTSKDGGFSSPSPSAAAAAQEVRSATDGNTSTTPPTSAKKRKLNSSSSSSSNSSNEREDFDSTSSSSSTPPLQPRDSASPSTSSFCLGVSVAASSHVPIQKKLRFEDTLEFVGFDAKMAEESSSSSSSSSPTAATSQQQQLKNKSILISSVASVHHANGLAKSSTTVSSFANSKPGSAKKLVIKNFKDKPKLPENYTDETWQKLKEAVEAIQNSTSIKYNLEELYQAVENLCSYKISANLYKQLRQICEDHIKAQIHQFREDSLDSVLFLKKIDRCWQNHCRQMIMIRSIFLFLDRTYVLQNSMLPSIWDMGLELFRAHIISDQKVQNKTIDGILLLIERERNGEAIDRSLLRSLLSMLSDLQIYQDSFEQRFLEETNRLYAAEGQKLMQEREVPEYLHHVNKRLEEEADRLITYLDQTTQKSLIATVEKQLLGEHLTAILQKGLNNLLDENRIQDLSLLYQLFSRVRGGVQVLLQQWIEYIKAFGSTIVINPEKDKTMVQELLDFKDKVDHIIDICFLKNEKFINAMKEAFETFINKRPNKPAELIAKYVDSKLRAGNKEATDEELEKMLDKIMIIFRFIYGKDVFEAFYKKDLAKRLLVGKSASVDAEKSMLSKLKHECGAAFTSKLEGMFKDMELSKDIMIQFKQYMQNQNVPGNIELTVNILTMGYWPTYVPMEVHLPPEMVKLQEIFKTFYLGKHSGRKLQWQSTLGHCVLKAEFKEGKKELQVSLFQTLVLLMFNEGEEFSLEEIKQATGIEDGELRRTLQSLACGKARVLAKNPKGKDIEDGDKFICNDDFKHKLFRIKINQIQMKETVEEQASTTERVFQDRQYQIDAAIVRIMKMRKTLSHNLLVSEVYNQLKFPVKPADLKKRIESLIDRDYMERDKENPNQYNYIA
PABPC4, Q13310, UniProt Q13310, whole entry: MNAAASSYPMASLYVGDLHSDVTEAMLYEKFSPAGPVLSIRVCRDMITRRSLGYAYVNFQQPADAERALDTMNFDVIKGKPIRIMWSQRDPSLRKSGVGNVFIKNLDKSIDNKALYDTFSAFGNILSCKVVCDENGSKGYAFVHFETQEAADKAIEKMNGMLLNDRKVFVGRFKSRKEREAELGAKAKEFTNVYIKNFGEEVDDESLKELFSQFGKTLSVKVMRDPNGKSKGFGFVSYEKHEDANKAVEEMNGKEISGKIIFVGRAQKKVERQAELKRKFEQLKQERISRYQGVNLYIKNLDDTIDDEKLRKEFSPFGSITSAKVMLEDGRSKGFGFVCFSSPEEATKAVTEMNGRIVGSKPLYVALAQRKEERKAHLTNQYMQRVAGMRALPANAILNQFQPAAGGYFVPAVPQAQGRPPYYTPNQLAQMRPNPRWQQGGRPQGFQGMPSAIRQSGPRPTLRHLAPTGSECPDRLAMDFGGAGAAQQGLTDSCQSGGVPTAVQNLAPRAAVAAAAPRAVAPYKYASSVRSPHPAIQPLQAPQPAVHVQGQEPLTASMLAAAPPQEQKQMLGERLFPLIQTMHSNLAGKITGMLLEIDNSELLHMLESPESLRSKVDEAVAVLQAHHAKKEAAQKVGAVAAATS
UROC1, Q96N76, UniProt Q96N76, whole entry: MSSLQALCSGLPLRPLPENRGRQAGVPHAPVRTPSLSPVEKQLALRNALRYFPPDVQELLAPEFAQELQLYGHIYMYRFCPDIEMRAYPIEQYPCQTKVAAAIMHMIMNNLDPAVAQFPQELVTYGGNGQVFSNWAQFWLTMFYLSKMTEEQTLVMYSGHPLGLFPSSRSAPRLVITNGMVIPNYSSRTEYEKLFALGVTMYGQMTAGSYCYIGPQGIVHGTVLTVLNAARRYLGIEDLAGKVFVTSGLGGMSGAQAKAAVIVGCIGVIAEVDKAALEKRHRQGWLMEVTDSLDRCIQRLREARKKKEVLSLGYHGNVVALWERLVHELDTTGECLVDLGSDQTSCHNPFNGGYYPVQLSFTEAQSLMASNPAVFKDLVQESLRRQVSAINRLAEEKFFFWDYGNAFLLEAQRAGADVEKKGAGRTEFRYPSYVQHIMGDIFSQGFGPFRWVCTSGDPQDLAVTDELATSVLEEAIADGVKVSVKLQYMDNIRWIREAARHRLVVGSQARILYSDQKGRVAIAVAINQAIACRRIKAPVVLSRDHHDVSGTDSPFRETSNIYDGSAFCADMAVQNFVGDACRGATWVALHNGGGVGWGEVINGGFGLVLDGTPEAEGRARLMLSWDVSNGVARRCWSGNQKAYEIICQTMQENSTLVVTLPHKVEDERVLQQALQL
CALR, P27797, UniProt P27797, whole entry: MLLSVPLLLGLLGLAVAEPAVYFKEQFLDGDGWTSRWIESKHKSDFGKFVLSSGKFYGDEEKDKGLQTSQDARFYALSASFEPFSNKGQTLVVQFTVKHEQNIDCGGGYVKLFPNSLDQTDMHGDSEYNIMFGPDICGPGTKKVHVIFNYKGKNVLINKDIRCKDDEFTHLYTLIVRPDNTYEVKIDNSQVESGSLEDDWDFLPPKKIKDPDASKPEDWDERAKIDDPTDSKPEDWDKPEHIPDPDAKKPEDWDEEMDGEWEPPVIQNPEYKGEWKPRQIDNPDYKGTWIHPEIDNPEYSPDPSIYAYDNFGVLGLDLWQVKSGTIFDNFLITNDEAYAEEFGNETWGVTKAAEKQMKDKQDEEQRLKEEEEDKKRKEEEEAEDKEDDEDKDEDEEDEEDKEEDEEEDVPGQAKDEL

ATP5F1D, P30049 = target: ATP5F1D, P30049
Experimental: as §1

BRAT1, Q6PJG6 = target: BRAT1, Q6PJG6
Experimental: as §1

COQ8A, Q8NI60 = target: COQ8A, Q8NI60
Experimental: as §1

CORO1A, P31146 = target: CORO1A, P31146
Experimental: as §1

CUL4B, Q13620 = target: CUL4B, Q13620
Experimental: as §1

DDX56, Q9NY93 = target: DDX56, Q9NY93
Experimental: as §1

DNAJB11, Q9UBS4 = target: DNAJB11, Q9UBS4
Experimental: as §1

DSP, P15924 = target: DSP, P15924
Experimental: as §1

EEFSEC, P57772 = target: EEFSEC, P57772
Experimental: as §1

FKBP1A, P62942 = target: FKBP1A, P62942
Experimental: as §1

FKBP4, Q02790 = target: FKBP4, Q02790
Experimental: as §1

FMR1, Q06787 = target: FMR1, Q06787
Experimental: as §1

HK2, P52789 = target: HK2, P52789
Experimental: as §1

HM13, Q8TCT9 = target: HM13, Q8TCT9
Experimental: as §1

MMTAG2, Q9BU76 = target: MMTAG2, Q9BU76
Experimental: as §1

MRPS16, Q9Y3D3 = target: MRPS16, Q9Y3D3
Experimental: as §1

MSH6, P52701 = target: MSH6, P52701
Experimental: as §1

MYH10, P35580 = target: MYH10, P35580
Experimental: as §1

NAMPT, P43490 = target: NAMPT, P43490
Experimental: as §1

NTMT1, Q9BV86 = target: NTMT1, Q9BV86
Experimental: as §1

OTUD4, Q01804 = target: OTUD4, Q01804
Experimental: as §1

PABPC4, Q13310 = target: PABPC4, Q13310
Experimental: as §1

PNO1, Q9NRX1 = target: PNO1, Q9NRX1
Experimental: as §1

POP4, O95707 = target: POP4, O95707
Experimental: as §1

PSMC2, P35998 = target: PSMC2, P35998
Experimental: as §1

RBX1, P62877 = target: RBX1, P62877
Experimental: as §1

RNF2, Q99496 = target: RNF2, Q99496
Experimental: as §1

SAMHD1, Q9Y3Z3 = target: SAMHD1, Q9Y3Z3
Experimental: as §1

SDF4, Q9BRK5 = target: SDF4, Q9BRK5
Experimental: as §1

SEH1L, Q96EE3 = target: SEH1L, Q96EE3
Experimental: as §1

SKP1, P63208 = target: SKP1, P63208
Experimental: as §1

SURF6, O75683 = target: SURF6, O75683
Experimental: as §1

UROC1, Q96N76 = target: UROC1, Q96N76
Experimental: as §1

WDR12, Q9GZL7 = target: WDR12, Q9GZL7
Experimental: as §1

AHCY, P23526 = target: AHCY, P23526
Experimental: as §1

ATXN10, Q9UBB4 = target: ATXN10, Q9UBB4
Experimental: as §1

CALR, P27797 = target: CALR, P27797
Experimental: as §1

CYC1, P08574 = target: CYC1, P08574
Experimental: as §1

DCAF16, Q9NXF7 = target: DCAF16, Q9NXF7
Experimental: as §1

DHX33, Q9H6R0 = target: DHX33, Q9H6R0
Experimental: as §1

GATAD2A, Q86YP4 = target: GATAD2A, Q86YP4
Experimental: as §1

GMNN, O75496 = target: GMNN, O75496
Experimental: as §1

HSPH1, Q92598 = target: HSPH1, Q92598
Experimental: as §1

ILVBL, A1L0T0 = target: ILVBL, A1L0T0
Experimental: as §1

MRPL48, Q96GC5 = target: MRPL48, Q96GC5
Experimental: as §1

NCAPG, Q9BPX3 = target: NCAPG, Q9BPX3
Experimental: as §1

NELFA, Q9H3P2 = target: NELFA, Q9H3P2
Experimental: as §1

PFN1, P07737 = target: PFN1, P07737
Experimental: as §1

PPP1CC, P36873 = target: PPP1CC, P36873
Experimental: as §1

UQCRFS1, P47985 = target: UQCRFS1, P47985
Experimental: as §1

B1: RP11-12K22.1 (peptide)
chain: KVECGDGENTEVQKK
- PRISMA enrichment of interactor (log2) (ABCE1, P61221): 4.1
- PRISMA enrichment of interactor (log2) (ATP5F1D, P30049): 7.36
- PRISMA enrichment of interactor (log2) (BRAT1, Q6PJG6): 4.73
- PRISMA enrichment of interactor (log2) (COQ8A, Q8NI60): 4.9
- PRISMA enrichment of interactor (log2) (CORO1A, P31146): 5.61
- PRISMA enrichment of interactor (log2) (CUL4B, Q13620): 4.6
- PRISMA enrichment of interactor (log2) (DDX56, Q9NY93): 4.56
- PRISMA enrichment of interactor (log2) (DNAJB11, Q9UBS4): 5.48
- PRISMA enrichment of interactor (log2) (DSP, P15924): 4.76
- PRISMA enrichment of interactor (log2) (EEFSEC, P57772): 3.91
- PRISMA enrichment of interactor (log2) (FKBP1A, P62942): 5.98
- PRISMA enrichment of interactor (log2) (FKBP4, Q02790): 5.82
- PRISMA enrichment of interactor (log2) (FMR1, Q06787): 12.5
- PRISMA enrichment of interactor (log2) (HK2, P52789): 5.29
- PRISMA enrichment of interactor (log2) (HM13, Q8TCT9): 4.64
- PRISMA enrichment of interactor (log2) (MMTAG2, Q9BU76): 4.32
- PRISMA enrichment of interactor (log2) (MRPS16, Q9Y3D3): 4.88
- PRISMA enrichment of interactor (log2) (MSH6, P52701): 7.25
- PRISMA enrichment of interactor (log2) (MYH10, P35580): 6.28
- PRISMA enrichment of interactor (log2) (NAMPT, P43490): 9.36
- PRISMA enrichment of interactor (log2) (NTMT1, Q9BV86): 6.27
- PRISMA enrichment of interactor (log2) (OTUD4, Q01804): 6.8
- PRISMA enrichment of interactor (log2) (PABPC4, Q13310): 6.6
- PRISMA enrichment of interactor (log2) (PNO1, Q9NRX1): 5.18
- PRISMA enrichment of interactor (log2) (POP4, O95707): 7.25
- PRISMA enrichment of interactor (log2) (PSMC2, P35998): 6.43
- PRISMA enrichment of interactor (log2) (RBX1, P62877): 5.58
- PRISMA enrichment of interactor (log2) (RNF2, Q99496): 5.93
- PRISMA enrichment of interactor (log2) (SAMHD1, Q9Y3Z3): 10.2
- PRISMA enrichment of interactor (log2) (SDF4, Q9BRK5): 4.66
- PRISMA enrichment of interactor (log2) (SEH1L, Q96EE3): 5.09
- PRISMA enrichment of interactor (log2) (SKP1, P63208): 4.26
- PRISMA enrichment of interactor (log2) (SURF6, O75683): 9.09
- PRISMA enrichment of interactor (log2) (UROC1, Q96N76): 4.21
- PRISMA enrichment of interactor (log2) (WDR12, Q9GZL7): 4.59

B2: PARL (peptide)
chain: VRRWAAAAARSSLRS
- PRISMA enrichment of interactor (log2) (ABCE1, P61221): 4.58
- PRISMA enrichment of interactor (log2) (AHCY, P23526): 5.62
- PRISMA enrichment of interactor (log2) (ATXN10, Q9UBB4): 5.77
- PRISMA enrichment of interactor (log2) (CALR, P27797): 6.61
- PRISMA enrichment of interactor (log2) (CYC1, P08574): 6.23
- PRISMA enrichment of interactor (log2) (DCAF16, Q9NXF7): 3.88
- PRISMA enrichment of interactor (log2) (DHX33, Q9H6R0): 4.53
- PRISMA enrichment of interactor (log2) (GATAD2A, Q86YP4): 7.11
- PRISMA enrichment of interactor (log2) (GMNN, O75496): 6.03
- PRISMA enrichment of interactor (log2) (HSPH1, Q92598): 4.54
- PRISMA enrichment of interactor (log2) (ILVBL, A1L0T0): 3.78
- PRISMA enrichment of interactor (log2) (MRPL48, Q96GC5): 3.92
- PRISMA enrichment of interactor (log2) (NCAPG, Q9BPX3): 4.4
- PRISMA enrichment of interactor (log2) (NELFA, Q9H3P2): 3.92
- PRISMA enrichment of interactor (log2) (PFN1, P07737): 4.66
- PRISMA enrichment of interactor (log2) (PPP1CC, P36873): 4.31
- PRISMA enrichment of interactor (log2) (UQCRFS1, P47985): 6.34

From the supplement of paper PMC10032668
